Measurements: patent US6794359B2, “Vertebrate intestinal protein which absorbs cholesterol, its inhibitors and mehtod of identifying the same” (Aventis Pharma Deutschland GmbH, priority 2000, dated 2004)

System: proteins from the brush border tissue of the small intestine
Test: Photoaffinity labeling and binding studies with brush border vesicles
Settings: rabbit brush border membrane vesicles, SDS polyacrylamide gel, FIG. 1

Row | Compound | molecular weight of proteins labeled by the radiolabeled compound
1 | COc1ccc(C2C(CCC(O)c3ccccc3)C(=O)N2c2ccc(CNC(C)=O)cc2)cc1 (centres unmarked) [formula I, N-{4-[3-(3-hydroxy-3-phenylpropyl)-2-(4-methoxyphenyl)-4-oxoazetidin-1-yl]benzyl}acetamide] | 145 kDa, 97 kDa, 72 kDa, 63 kDa, 58 kDa, 41 kDa 32 kDa and 25 kDa
2 | COc1ccc(C2C(CCC(O)c3ccccc3)C(=O)N2c2ccc(CNC(=O)c3ccc(N=[N+]=[N-])cc3)cc2)cc1 (centres unmarked) [formula II, 4-azido-N-{4-[3-(3-hydroxy-3-phenyl-propyl)-2-(4-methoxyphenyl)-4-oxoazetidin-1-yl]benzyl}benzamide] | 145 kDa, 97 kDa, 87 kDa and 41 kDa
